PubChem BioAssay AID1224830 | NIAID, 2016

Assay: 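Host factors that control LPS-induced TNF expression in human macrophages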 (primary screen)
Cells: human THP-1 monocytic leukaemia cells, TNF dual-luciferase reporter clone, PMA-differentiated to macrophage-like cells
Reagents: siRNA pool against human genes, 50 nM
Time to read-out: LPS for 4 h, given about 3 days after siRNA transfection
Conditions: bacterial LPS (TLR4 ligand), 10 ng/ml
Measured: 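Ratio of firefly to renilla light, scaled to the plate median and expressed as a robust z-score per replicate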
Scale: TNF reporter robust z-score: higher = stronger TNF reporter response to LPS
Active means: 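Each well counts as active if its z-score is over 2.8 or under -1.5; controls are left without a call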
The deposit covers about 18,000 reagents; shown is a part drawn at random. Over the whole deposit, about 2,900 (16%) were called active. 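Calls are made per well; low scores hint the gene aids the LPS response, high scores that it dampens it.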 Repeated entries: four replicate wells of each siRNA pool.

ZNF710 (GeneID 374655) scored TNF reporter robust z-score -0.35; inactive.
Against ZNF710 (GeneID 374655), the entry reads TNF reporter robust z-score -0.47; inactive.
For ZNF710 (GeneID 374655), the entry reads TNF reporter robust z-score -0.13; inactive.
After knock-down of ZNF710 (GeneID 374655), the record shows TNF reporter robust z-score -0.21; inactive.
With knock-down of HRH3 (GeneID 11255), the record shows TNF reporter robust z-score 0.06; inactive.
Silencing of HRH3 (GeneID 11255) came out at: TNF reporter robust z-score -0.02; inactive.
HRH3 (GeneID 11255) showed TNF reporter robust z-score 1.09; inactive.
After knock-down of HRH3 (GeneID 11255), the record shows TNF reporter robust z-score -0.61; inactive.
With knock-down of LGSN (GeneID 51557) the results were TNF reporter robust z-score -1.14; inactive.
With knock-down of LGSN (GeneID 51557), the record shows TNF reporter robust z-score -0.47; inactive.
Depletion of LGSN (GeneID 51557) came out at: TNF reporter robust z-score -0.95; inactive.
LGSN (GeneID 51557) gave TNF reporter robust z-score -0.88; inactive.
After knock-down of EPHX2 (GeneID 2053), the screen gave TNF reporter robust z-score -0.75; inactive.
With knock-down of EPHX2 (GeneID 2053) the results were TNF reporter robust z-score 0.12; inactive.
Against EPHX2 (GeneID 2053), the values are TNF reporter robust z-score -0.81; inactive.
Depletion of EPHX2 (GeneID 2053) came out at: TNF reporter robust z-score -1.2; inactive.
HMX1 (GeneID 3166) showed TNF reporter robust z-score 0.31; inactive.
Against HMX1 (GeneID 3166) the deposit lists TNF reporter robust z-score 0.59; inactive.
For HMX1 (GeneID 3166), the entry reads TNF reporter robust z-score -0.47; inactive.
Knock-down of HMX1 (GeneID 3166) came out at: TNF reporter robust z-score 0.08; inactive.
